According to paper PMC11734925:
Results are given in words; binding and its absence hold for the method and conditions named. In cells and extracts the contact can be indirect. A yes stands for co-enrichment or nearness to the bait. Other partners may have been found. Sequences can lack the tags named with a protein.

The chains behind the UniProt entries cited, without tags or fusion partners. Where a name states a change or a piece, a line headed by the entry shows the natural chain unless it says otherwise.
UniProt Q9W3W6: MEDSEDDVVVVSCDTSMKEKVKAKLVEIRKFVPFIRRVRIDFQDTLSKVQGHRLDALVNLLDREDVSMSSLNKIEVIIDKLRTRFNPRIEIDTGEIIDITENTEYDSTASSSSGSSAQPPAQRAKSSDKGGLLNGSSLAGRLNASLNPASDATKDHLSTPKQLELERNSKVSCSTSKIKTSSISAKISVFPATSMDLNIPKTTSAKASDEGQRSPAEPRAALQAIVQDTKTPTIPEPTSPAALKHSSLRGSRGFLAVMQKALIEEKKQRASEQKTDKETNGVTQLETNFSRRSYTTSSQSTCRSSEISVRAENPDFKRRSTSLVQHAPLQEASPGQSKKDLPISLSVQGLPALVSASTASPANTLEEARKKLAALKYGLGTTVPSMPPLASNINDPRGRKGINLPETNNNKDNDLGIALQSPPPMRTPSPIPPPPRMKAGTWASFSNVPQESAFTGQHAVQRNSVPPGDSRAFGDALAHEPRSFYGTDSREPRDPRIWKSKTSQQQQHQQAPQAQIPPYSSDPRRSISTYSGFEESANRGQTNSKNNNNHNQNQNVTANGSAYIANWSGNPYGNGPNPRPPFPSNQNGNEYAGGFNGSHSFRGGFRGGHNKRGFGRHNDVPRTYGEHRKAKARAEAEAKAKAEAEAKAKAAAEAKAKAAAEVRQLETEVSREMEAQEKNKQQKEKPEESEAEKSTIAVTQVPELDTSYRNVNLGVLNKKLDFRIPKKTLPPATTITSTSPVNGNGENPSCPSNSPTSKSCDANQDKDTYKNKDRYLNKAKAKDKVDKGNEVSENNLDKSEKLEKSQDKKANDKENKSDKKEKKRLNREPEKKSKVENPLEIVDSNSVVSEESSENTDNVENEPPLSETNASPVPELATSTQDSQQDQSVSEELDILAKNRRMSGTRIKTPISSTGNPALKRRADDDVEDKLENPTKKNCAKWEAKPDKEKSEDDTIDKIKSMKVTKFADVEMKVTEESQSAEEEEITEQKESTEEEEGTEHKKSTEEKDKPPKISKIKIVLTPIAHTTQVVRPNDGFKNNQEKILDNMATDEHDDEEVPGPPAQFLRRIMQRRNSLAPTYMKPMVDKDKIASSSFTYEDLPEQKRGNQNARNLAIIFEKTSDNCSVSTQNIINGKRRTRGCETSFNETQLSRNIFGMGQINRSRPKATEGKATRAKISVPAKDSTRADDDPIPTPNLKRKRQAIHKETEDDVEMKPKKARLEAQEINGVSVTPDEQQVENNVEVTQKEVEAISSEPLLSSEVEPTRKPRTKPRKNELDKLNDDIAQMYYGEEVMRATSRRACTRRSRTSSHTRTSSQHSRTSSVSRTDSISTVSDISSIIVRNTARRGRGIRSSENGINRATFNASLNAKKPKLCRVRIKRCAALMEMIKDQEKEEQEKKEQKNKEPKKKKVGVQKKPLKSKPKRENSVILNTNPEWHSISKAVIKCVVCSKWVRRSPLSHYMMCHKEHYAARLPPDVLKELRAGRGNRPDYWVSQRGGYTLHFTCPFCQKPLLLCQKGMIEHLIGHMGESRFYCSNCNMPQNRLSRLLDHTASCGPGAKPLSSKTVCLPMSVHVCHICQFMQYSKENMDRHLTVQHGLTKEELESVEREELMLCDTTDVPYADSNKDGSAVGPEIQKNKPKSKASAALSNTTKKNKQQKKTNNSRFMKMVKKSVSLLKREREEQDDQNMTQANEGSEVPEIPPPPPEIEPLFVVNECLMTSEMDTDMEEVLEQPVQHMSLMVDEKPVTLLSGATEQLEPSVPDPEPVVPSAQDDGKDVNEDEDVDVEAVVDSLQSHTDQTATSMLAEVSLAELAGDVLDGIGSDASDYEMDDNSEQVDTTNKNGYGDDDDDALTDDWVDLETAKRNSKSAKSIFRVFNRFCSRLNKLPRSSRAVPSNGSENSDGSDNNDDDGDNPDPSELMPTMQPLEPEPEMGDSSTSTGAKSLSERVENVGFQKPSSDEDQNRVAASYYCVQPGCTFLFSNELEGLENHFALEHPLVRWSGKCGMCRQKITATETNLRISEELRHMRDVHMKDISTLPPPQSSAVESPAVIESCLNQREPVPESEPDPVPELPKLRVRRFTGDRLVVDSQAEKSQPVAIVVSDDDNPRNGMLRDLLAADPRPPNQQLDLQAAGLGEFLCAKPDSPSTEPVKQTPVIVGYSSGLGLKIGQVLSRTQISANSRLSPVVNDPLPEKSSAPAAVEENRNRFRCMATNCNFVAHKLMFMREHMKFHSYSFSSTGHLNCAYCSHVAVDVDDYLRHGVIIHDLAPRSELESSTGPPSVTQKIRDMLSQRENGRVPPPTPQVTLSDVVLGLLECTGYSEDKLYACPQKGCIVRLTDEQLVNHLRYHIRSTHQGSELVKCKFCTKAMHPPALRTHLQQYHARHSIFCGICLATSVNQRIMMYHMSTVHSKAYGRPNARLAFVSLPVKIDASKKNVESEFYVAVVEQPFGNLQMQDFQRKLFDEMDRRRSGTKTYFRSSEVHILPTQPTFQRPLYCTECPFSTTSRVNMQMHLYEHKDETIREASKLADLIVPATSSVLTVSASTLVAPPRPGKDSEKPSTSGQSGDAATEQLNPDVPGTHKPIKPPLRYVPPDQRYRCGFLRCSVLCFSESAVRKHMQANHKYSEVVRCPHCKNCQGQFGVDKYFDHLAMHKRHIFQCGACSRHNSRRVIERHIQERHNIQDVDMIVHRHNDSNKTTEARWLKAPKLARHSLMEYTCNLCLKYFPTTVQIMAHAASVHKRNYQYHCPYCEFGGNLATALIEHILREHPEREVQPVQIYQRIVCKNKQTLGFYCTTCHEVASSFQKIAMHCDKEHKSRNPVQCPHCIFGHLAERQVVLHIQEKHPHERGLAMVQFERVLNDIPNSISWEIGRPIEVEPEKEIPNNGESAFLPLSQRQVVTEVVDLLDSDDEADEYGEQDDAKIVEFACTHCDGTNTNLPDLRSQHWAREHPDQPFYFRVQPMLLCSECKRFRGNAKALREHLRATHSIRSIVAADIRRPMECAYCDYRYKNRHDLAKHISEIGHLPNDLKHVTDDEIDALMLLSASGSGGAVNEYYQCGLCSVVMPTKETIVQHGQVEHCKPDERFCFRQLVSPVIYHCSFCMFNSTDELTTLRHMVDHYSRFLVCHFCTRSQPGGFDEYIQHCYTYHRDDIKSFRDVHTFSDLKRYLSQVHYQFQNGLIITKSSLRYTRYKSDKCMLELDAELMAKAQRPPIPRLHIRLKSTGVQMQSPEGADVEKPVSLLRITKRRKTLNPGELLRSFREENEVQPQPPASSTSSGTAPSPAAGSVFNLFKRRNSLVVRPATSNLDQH

T1: GFP-D1 (D. melanogaster) (UniProt P22058)
T1 sequence: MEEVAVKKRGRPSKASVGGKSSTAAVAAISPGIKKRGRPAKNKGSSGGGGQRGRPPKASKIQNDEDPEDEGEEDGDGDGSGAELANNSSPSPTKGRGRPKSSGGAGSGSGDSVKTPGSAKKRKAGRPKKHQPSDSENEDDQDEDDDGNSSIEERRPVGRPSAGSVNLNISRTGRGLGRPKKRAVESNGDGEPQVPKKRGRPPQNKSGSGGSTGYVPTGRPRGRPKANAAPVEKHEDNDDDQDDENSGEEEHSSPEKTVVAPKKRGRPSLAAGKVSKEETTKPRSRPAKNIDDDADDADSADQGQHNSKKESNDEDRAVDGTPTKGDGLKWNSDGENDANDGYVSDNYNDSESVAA

B1: Xpc (protein, UniProt Q24595 1-1293)
chain: MSDEEEDSVSEGFSASEDEWKPSKDVKGGESSDDDDSDFDELQAEGGAAGSSGRSSAVAGKRGDHKAPSGIKGSSVKKRKPTGQSLRSKLYNKYRPPPKTFPTSPSQQKENTPRASGSKNAKTPNESGARNQHGPADSSSESSVEDYLVNPADLDLHSTFFAGGQKEKSPAPQFDCNAGITNLSDSGSEDNNESSFEDKAGNAFDFRGLLENANSLERTRDALSKRNVTATPPRSQAATMDVNALLALGENQNYQSVEVEEREGNQRKKAGRGAPAAPPTLDEPSRLSKTKSTRIKRHTKTRPVSTVVANAGDTDDSDFEEVADADLSSDQDDGETPNISGDLEIRVGLEGLRPTKEQKTQHELEMALKRRLNRDIKDRQILLHKVSLMCQIARSLKYNRLLSESDSLMQATLKLLPSRNAYPTERGTELKYLQSFVTWFKTSIKLLSPNLYSAQSPATKEAILEALLEQVKRKEARCKQDMIFIFIALARGMGMHCRLIVNLQPMPLRPAASDLIPIKLRPDDKNKSQTVESERESEDEKPKKDKKAGKPAEKESSKSTISKEAEKKNNAKKAEAKPLSKSTTKGSETTKSGTVPKVKKELSLSSKLVEKSKHQKAYTSSKSDTSFDEKPSTSSSSKCLKEEYSELGLSKKLLKPTLSSKLVLKSKNQSSFSSNKSDTSFEENPSTSSSSKSLKEETAKLSSSKLEDKKVASPAETKTKVQSSLLKRVTTQNISESGDSKKPKVAPVDTFSPVAGRTRRATVKPKTEEKPQVVGSPVIPKLMLSKVKQLNAKHSDTENASPANKHLQEQRNTRETRSRSKSPKVLISPSFLKKKSDGADSTSDPQKHQMAPETKARISPNFLSEALPARQLRSRGQKASSLAIPQLDGGDDVPLPKKRPKLEKLKNSQDSDEVFEPAKPVKKAPVLPKSVQNLRKDRRVMSTDDEGGSRLNRKTDASDMWVEVWSDVEEQWICIDLFKGKLHCVDTIRKNATPGLAYVFAFQDDQSLKDVTARYCASWSTTVRKARVEKAWLDETIAPYLGRRTKRDITEDDQLRRIHSDKPLPKSISEFKDHPLYVLERHLLKFQGLYPPDAPTLGFIRGEAVYSRDCVHLLHSREIWLKSARVVKLGEQPYKVVKARPKWDRLTRTVIKDQPLEIFGYWQTQEYEPPTAENGIVPRNAYGNVELFKDCMLPKKTVHLRLPGLMRICKKLNIDCANAVVGFDFHQGACHPMYDGFIVCEEFREVVTAAWEEDQQVQVLKEQEKYETRVYGNWKKLIKGLLIRERLKKKYNF
B2: Top2 (protein, UniProt P15348 1-1447)
chain: MENGNKALSIEQMYQKKSQLEHILLRPDSYIGSVEFTKELMWVYDNSQNRMVQKEISFVPGLYKIFDEILVNAADNKQRDKSMNTIKIDIDPERNMVSVWNNGQGIPVTMHKEQKMYVPTMIFGHLLTSSNYNDDEKKVTGGRNGYGAKLCNIFSTSFTVETATREYKKSFKQTWGNNMGKASDVQIKDFNGTDYTRITFSPDLAKFKMDRLDEDIVALMSRRAYDVAASSKGVSVFLNGNKLGVRNFKDYIDLHIKNTDDDSGPPIKIVHEVANERWEVACCPSDRGFQQVSFVNSIATYKGGRHVDHVVDNLIKQLLEVLKKKNKGGINIKPFQVRNHLWVFVNCLIENPTFDSQTKENMTLQQKGFGSKCTLSEKFINNMSKSGIVESVLAWAKFKAQNDIAKTGGRKSSKIKGIPKLEDANEAGGKNSIKCTLILTEGDSAKSLAVSGLGVIGRDLYGVFPLRGKLLNVREANFKQLSENAEINNLCKIIGLQYKKKYLTEDDLKTLRYGKVMIMTDQDQDGSHIKGLLINFIHTNWPELLRLPFLEEFITPIVKATKKNEELSFYSLPEFEEWKNDTANHHTYNIKYYKGLGTSTSKEAKEYFQDMDRHRILFKYDGSVDDESIVMAFSKKHIESRKVWLTNHMDEVKRRKELGLPERYLYTKGTKSITYADFINLELVLFSNADNERSIPSLVDGLKPGQRKVMFTCFKRNDKREVKVAQLSGSVAEMSAYHHGEVSLQMTIVNLAQNFVGANNINLLEPRGQFGTRLSGGKDCASARYIFTIMSPLTRLIYHPLDDPLLDYQVDDGQKIEPLWYLPIIPMVLVNGAEGIGTGWSTKISNYNPREIMKNLRKMINGQEPSVMHPWYKNFLGRMEYVSDGRYIQTGNIQILSGNRLEISELPVGVWTQNYKENVLEPLSNGTEKVKGIISEYREYHTDTTVRFVISFAPGEFERIHAEEGGFYRVFKLTTTLSTNQMHAFDQNNCLRRFPTAIDILKEYYKLRREYYARRRDFLVGQLTAQADRLSDQARFILEKCEKKLVVENKQRKAMCDELLKRGYRPDPVKEWQRRIKMEDAEQADEEDEEEEEAAPSVSSKAKKEKEVDPEKAFKKLTDVKKFDYLLGMSMWMLTEEKKNELLKQRDTKLSELESLRKKTPEMLWLDDLDALESKLNEVEEKERAEEQGINLKTAKALKGQKSASAKGRKVKSMGGGAGAGDVFPDPDGEPVEFKITEEIIKKMAAAAKVAQAAKEPKKPKEPKEPKVKKEPKGKQIKAEPDASGDEVDEFDAMVEGGSKTSPKAKKAVVKKEPGEKKPRQKKENGGGLKQSKIDFSKAKAKKSDDDVEEVTPRAERPGRRQASKKIDYSSLFSDEEEDGGNVGSDDDGNASDDDSPKRPAKRGREDESSGGAKKKAPPKKRRAVIESDDDDIEIDEDDDDDSDFNC
B3: Elg1 (protein, UniProt Q86BP6 1-1162)
chain: MTDVNCLTSEHIAPTTTTASPPGTPSKNAATDPVEPTSPFVLRAPPSAKSKLILQNMEEVLNSVKQKHREKHKRKREEKRRAALMEDQKSTTEEVKANAKEKPQPLREKSSQENGLKNGRRRSSPLKSSTPVADNQSIMKHFAKAGKPENVGVSPVSTAKPKPTTNVFEFMMNARNRSLGVNEGGAESPADQEIGSEAATPTTKRKLLLQEWNERKGGAKRRLADEARGEFIELQMEQRAKRLRKMLTKTDAKEVTAPSSAPTDPTVKRLRGRPRSRRISSMDAQNQIVESKPPVVKAKDQDPGTEELLSKLSSPTKKRDSLLGYFPKVESPKELAEKVIIAIETPPMETPKRRTLRRKSQQETPIVAESTPSSRPRRSCVGKARYDYDLETSPGKQQKAKPQKADESVEIIDLDNSNPAATPKKLAPLFVRQLPKPSPDPSVLKARQAFLQSGVPDKIRQEQIRQKNFDQMYEDSYEVFPRLAHIGCESFGSKNGPLDIPFALRAEEEYSEVTKALPANKRRAKASSITSCLPADFTSSKTLNKFNYATLPQLENKRGFVKLWKNDFDRFPTFKCYNQMREKYRHFSAIDSAQDTQQMGESLVVTRRTRRSMEQNMAQNEEEAKPPPSAPNGELLFTEKYKPLLFEQVLVNLTPVQELREFLSSWSGNGGSNRNSQGMDDTFDMSNDSASMGSSSNTMVLVGPSSSGKTNAVFTLANDMNFNVLEINAGMKRTGKKLIQELQEATQSHQIRKDGKAGGGSSQQLLQKLQKSGLKAKAAAVEPPSEVRKSLILIEDADILFDNLDAGFTDAIYTLAASSKRPVIVVATDPNCAHLQRLMQQNIIHFQAPNALNISRFLAVLSLMENCPIELDELISVYLYNQQNLRKTLMELQFYIQSGGDSTRDRTGGGIKSPTKTSNSRLATVDGSRIHQRFFEFFTSPQNVQYRIPFPVDFSLLRLNLPDLMASSAMLKEQQAAGGGSRTAAKRKSRSPKKAWLSSATGQKSDGHSSSLATLASFYDNISVASLMDSDCSDRLQWHLSEEIGHLLVEQALQTGLATKECPYNLFDKPVQRFSICQHLGNGVLRSDSAKSLDFEPALRSICRSEKERAGLERKSSRFYHYLRNHTVNVTSFTTDYFDTACSTFQSAAPSSEPTMEAEPKD

The molecules below were run against T1, GFP-D1 (D. melanogaster) (assay: affinity purification with mass spectrometry; GFP-D1 or GFP-Prod captured on anti-GFP nanobody magnetic beads from lysate of nuclei isolated from embryos (450 mM NaCl, 1% Triton-X, benzonase), 90 min at 4°C; washes with 450 mM NaCl; hits against the NLS-GFP control pulldown).
For “hybrid male rescue (Hmr) (D. melanogaster (endogenous in embryos))”, the binding was “binds”. “lethal hybrid rescue (Lhr) (D. melanogaster (endogenous in embryos))” was tested, and the binding was “binds”. For “Stwl (D. melanogaster (endogenous in embryos))”, the binding was “binds”. With CG42232 (from UniProt B7Z0I8) the binding was “binds”. In the case of “POLDIP2 (D. melanogaster (endogenous in embryos))”, the binding is reported as “binds”. In the case of “CG5599 (D. melanogaster (endogenous in embryos))”, the binding is reported as “binds”. small ovary (Sov) (from UniProt Q9W3W6) was tested, and the binding was “binds”. “ADD1 (D. melanogaster (endogenous in embryos))” was tested, and the binding was “binds”. In the case of B1, the binding is reported as “binds”. For B2, the binding was “binds”. In the case of B3, the binding is reported as “binds”.
